Literature values in patent US5762956A, “Transdermal contraceptive delivery system and process” (priority 1996, dated 1998).
At least one read-out could not be matched to a standard name with certainty.

Details: oral; cited from earlier work

Structure (SMILES): C[C@]12CC[C@@H]3c4ccc(O)cc4CC[C@H]3[C@@H]1CC[C@@H]2O [17-beta-estradiol]
- natural estrogen taken orally destroyed in the digestive tract or in the liver: over 90%
